From PMC4585926, “A RANKL mutant used as an inter-species vaccine for efficient immunotherapy of osteoporosis” (Scientific Reports, 2015)
These are yes or no findings as the source states them, for the method shown. Some binding calls cover weakened binding; strength is not graded here.

Molecular target: T1, mouse RANK extracellular domain (mouse, UniProt O35305 31-214)
T1 construct: RANK, mouse, extracellular domain (plasmid pET28a-mRANK); also called mRANK; mRANK ectodomain; source: plasmid pET28a-mRANK
T1 sequence (looked up): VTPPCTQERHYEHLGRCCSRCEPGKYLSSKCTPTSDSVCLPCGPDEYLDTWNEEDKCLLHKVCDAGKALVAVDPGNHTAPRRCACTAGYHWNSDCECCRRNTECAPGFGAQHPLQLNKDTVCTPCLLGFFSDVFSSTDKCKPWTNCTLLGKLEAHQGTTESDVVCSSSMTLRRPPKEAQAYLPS
Assay: crystal structure; hRANKL and mRANK mixed 1:1 in 0.1 M Tris pH 7.0, 10 mg/mL; sitting drop at 294 K, microseeded with crushed mRANKL-mRANK crystals; 2.8 Å, space group P63; both purified

- binding: binds
B1: human RANKL ectodomain (residues 158-317), wild type (ligand, UniProt O14788 158-317, looked up)
chain: SKLEAQPFAHLTINATDIPSGSHKVSLSSWYHDRGWAKISNMTFSNGKLIVNQDGFYYLYANICFRHHETSGDLATEYLQLMVYVTKTSIKIPSSHTLMKGGSTKYWSGNSEFHFYSINVGGFFKLRSGEEISIEVSNPSLLDPDQDATYFGAFKVRDID
notes: RANKL, human, ectodomain, residues 158-317 (plasmid pGEX-6P-hRANKL); Homotrimer in the crystal structure; also called hRANKL; wild-type hRANKL; source: E. coli BL21, purified (glutathione-Sepharose, PreScission cleavage, Superdex 200); not shown: GST, N-terminal, cleaved
